Assay results as given in PubChem BioAssay AID2685 (National Center for Advancing Translational Sciences (NCATS), 2010).
Some of the results follow. The main result of the screen is listed elsewhere. These columns were measured beside it and carry no call. Most of these compounds were active or inconclusive in the main read-out, so they are no random draw. Words in brackets tell the shape of the fitted curve; partial curves, single points and poor fits give uncertain potencies.

Assay: qHTS Assay for Lipid Storage Modulators in Drosophila S3 Cells;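 on cell number change: cells counted by Cell Tracker Red CMTPX staining in the red channel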
Conditions: BODIPY lipid droplet fluorescence, 18-24 h; for cell number change: measured here: cell count max response, cells fed with added oleic acid
In short: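 Drosophila S3 cells loaded with oleic acid (400 uM, as added) and compounds at several concentrations; lipid droplets imaged by 488-nm laser-scanning cytometry, 500–530 nm intensity and object ratio to cell channel. Percent activity normalized to 20 uM Triacsin C.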

[1] = measured here: cell number channel AC50, cells fed with added oleic acid
[2] = measured here: lipid fluorescence (Fed channel) AC50, cells fed with added oleic acid

SMILES	cell number change [%]	AC50 [1]	AC50 [2]
Brc1ccc(/C=N/c2nc3ccccc3n2CCN2CCOCC2)cc1	-16.5	2.31 µM [falling, single point]	0.731 µM [falling, full curve]
CC(=O)Oc1ccc(N2C(=O)C3C(C2=O)C2(C)C=CC3(C)O2)cc1 (configuration not stated)	-34.8	0.651 µM [falling, full curve]	0.92 µM [falling, full curve]
N#C/C(=C\c1c[nH]c2ccccc12)C(=O)NC1CCCC1	-22.6		29.1 µM [falling, single point]
COc1ccc(Nc2nc(NCCO)nc(OC)n2)cc1			0.651 µM [rising, single point]
Cc1ccc(S(=O)(=O)NC(C)C(=O)Nc2cccc([N+](=O)[O-])c2)cc1 (configuration not stated)	34		
COc1ccc2c(c1)c1nnc(SCC(=O)NC3CC3)nc1n2C			18.4 µM [falling, single point]
O=C(CCCc1ccccc1)NCCN1CCOCC1	10.4		0.184 µM [falling, full curve]
O=C1c2ccccc2C(=O)N1CC(=O)N1c2ccccc2Sc2ccc(C(F)(F)F)cc21	4.02		0.00411 µM [falling, full curve, poor fit]
OCCN1CCN(c2ncnc3sc(-c4ccccc4)cc23)CC1	-10		
CC(=O)n1nc(-c2cccnc2)nc1N	12.2		0.92 µM [rising, full curve]
CCc1ccc2c(c1)c1nc(C)sc1n2CC(=O)OC	42.6	10.3 µM [rising, single point]	20.6 µM [rising, partial curve]
CC1CCCN(C(=O)c2nn(C)c3c2CS(=O)(=O)c2ccccc2-3)C1 (configuration not stated)			6.51 µM [rising, single point]
O=C(NCc1cccs1)C1CC(c2ccc(Cl)cc2)=NO1 (configuration not stated)	29.4		16.4 µM [rising, partial curve, poor fit]
CC(C)Oc1cccc(C(=O)C2CCCN(C(=O)c3ccsc3)C2)c1 (configuration not stated)			29.1 µM [falling, single point]
O=C(NCC1OCCc2ccccc21)c1ccc(NC(=O)c2ccc(Cl)cc2Cl)cc1 (configuration not stated)	-17.9		14.6 µM [falling, single point]
Nc1c2c(nn1-c1ccccc1)CCC2	-9.21		0.1 µM [falling, full curve, poor fit]
O=C1Oc2ccccc2C(=O)/C1=C\N1CCN(c2ccccc2)CC1	-12.3		
Cc1ccc(-n2nnnc2SCC(=O)Nc2ccccc2-c2ccccc2)cc1C	-5.08		29.1 µM [rising, single point]
O=C(CCc1ccccc1)N1CCN(CCO)CC1	-3.54		

SMILES	cell number change [%]	AC50 [1]	AC50 [2]
Cc1scc(C(=O)N2CCN(c3ccc(Cl)cc3)CC2)c1C	-19.4	0.00461 µM [falling, full curve, poor fit]	0.00461 µM [falling, full curve, poor fit]
CC(C)c1ccc2[nH]c(O)c(N=NC(=O)c3cccc(S(=O)(=O)Nc4ccc(Cl)cc4)c3)c2c1	-59.9		
Cc1ccc(OCC(=O)c2ccc(Cl)s2)c([N+](=O)[O-])n1	14	0.082 µM [falling, full curve, poor fit]	0.116 µM [falling, full curve, poor fit]
Cc1nc2ccccc2c(=O)n1/N=C/c1ccccc1F	18.5		6.51 µM [rising, single point]
CCC(NC(=O)c1ccc([N+](=O)[O-])cc1[N+](=O)[O-])c1ccccc1 (configuration not stated)	-26.9	0.116 µM [falling, full curve]	
COc1cccc(C(=O)NNS(=O)(=O)c2ccc(C)cc2)c1	27.4		29.1 µM [rising, single point]
CCc1ccc(-n2c(SCc3c(C)noc3C)nnc2-c2ccncc2)cc1		0.731 µM [rising, partial curve]	6.51 µM [rising, partial curve]
O=C(CCC(=O)N1CCN(C2CCCCC2)CC1)Nc1nnc(C(F)(F)F)s1	-48.8	20.6 µM [falling, partial curve]	1.16 µM [falling, full curve]
CN1C(=O)c2ccc(C(=O)NC3CCCCC3)cc2C1=O		6.51 µM [rising, single point]	6.51 µM [rising, single point]
O=C(c1ccc(Cl)cc1)N1CCN(CCc2ccccn2)CC1	118	9.2 µM [rising, partial curve]	29.1 µM [rising, partial curve, poor fit]
COc1ccc(NC(=O)c2ccc(-n3cccn3)c([N+](=O)[O-])c2)cc1	-122	2.06 µM [falling, partial curve]	
O=C(N/N=C/c1ccc(OC(F)F)cc1)c1cc[n+]([O-])cc1	37.1	25.9 µM [rising, single point]	
COC(=O)[C@H](CCSC)NC(=O)NCCc1ccccc1F	-33.5	29.1 µM [falling, single point]	
Cc1c(C)c2ccc(OCC(=O)Nc3ccccn3)cc2oc1=O	0.708		6.51 µM [falling, single point]
CC1CCCN(C(=O)CNC(=O)c2cccs2)C1 (configuration not stated)	4.28		0.00461 µM [falling, full curve, poor fit]
O=C(Nc1nc(-c2ccc(Cl)cc2)cs1)C1=COCCO1			0.58 µM [falling, full curve, poor fit]
COC(=O)c1ccc(S(=O)(=O)c2ccccc2)c(N)c1	71.7	13 µM [rising, partial curve]	
CCCCn1c(SCC(=O)N2CCCc3ccccc32)nc2c1c(=O)n(C)c(=O)n2C	4.57		
Cc1ccc(C(=O)NC(=S)Nc2ccc(N3CCOCC3)cc2)cc1	-20.9		0.0058 µM [falling, full curve, poor fit]

Whole records, quoted from the list.
Cc1ccc(OCC(=O)c2ccc(Cl)s2)c([N+](=O)[O-])n1 is entered as cell number change [%]: 14; AC50 [1]: 0.082 µM [falling, full curve, poor fit]; AC50 [2]: 0.116 µM [falling, full curve, poor fit]
COc1ccc(NC(=O)c2ccc(-n3cccn3)c([N+](=O)[O-])c2)cc1 is entered as cell number change [%]: -122; AC50 [1]: 2.06 µM [falling, partial curve]
COC(=O)c1ccc(S(=O)(=O)c2ccccc2)c(N)c1 is entered as cell number change [%]: 71.7; AC50 [1]: 13 µM [rising, partial curve]
Cc1nc2ccccc2c(=O)n1/N=C/c1ccccc1F is entered as cell number change [%]: 18.5; AC50 [2]: 6.51 µM [rising, single point]

Further records follow.

SMILES	cell number change [%]	AC50 [1]	AC50 [2]
O=C(CCN1C(=O)/C(=C/c2ccc(F)cc2)SC1=S)NCCc1cnc[nH]1	-39.7	29.1 µM [falling, single point]	20.6 µM [falling, single point]
Cc1nn(Cc2cccc(F)c2)c(C)c1NC(=O)c1ccc(COc2ccccc2Cl)cc1	-79.2		29.1 µM [falling, partial curve]
c1ccc(Cn2c3ccccc3c3nnc(SCCN4CCCCC4)nc32)cc1	30.9	14.6 µM [rising, partial curve]	
COC(=O)c1ccc(NC(=S)NC2CCCCC2)cc1	-7.36	1.46 µM [rising, partial curve]	1.84 µM [rising, partial curve]
CS(=O)(=O)N(CC(=O)N1CCCC1)c1cc(Cl)c(Cl)cc1Cl	81	8.2 µM [rising, partial curve]	10.3 µM [rising, partial curve]
NC(=O)CC(NC(=O)c1ccc(Br)cc1)c1ccc(NC2CCCCCC2)c([N+](=O)[O-])c1 (configuration not stated)	14.7		9.2 µM [falling, partial curve]
Cc1ccc(S(=O)(=O)N(C)C)cc1NC(=O)COC(=O)CCNS(=O)(=O)c1ccccc1	-2.88		10.3 µM [rising, partial curve]
CCN1C(=O)C2(C(C#N)=C(N)Oc3n[nH]c(-c4ccc(Cl)cc4)c32)c2ccccc21 (configuration not stated)	42.7	0.731 µM [rising, full curve]	6.51 µM [rising, partial curve]
COc1ccc(C2=NN(C(=O)CSc3nc(=O)n4cccc(C)c4n3)C(c3ccc(C)cc3)C2)cc1 (configuration not stated)	6.7	2.31 µM [rising, partial curve]	2.59 µM [rising, partial curve]
O=C(COC(=O)CNS(=O)(=O)c1ccccc1)Nc1ncc(Cl)cc1Cl	0.251		1.64 µM [rising, full curve, poor fit]
N#Cc1ccc(-c2ccc(F)cc2)nc1Oc1ccccc1	56.8	18.4 µM [rising, single point]	
Cn1c(Cn2c(=O)sc3ccccc32)nnc1SCc1cccnc1	13.4		0.517 µM [falling, single point]
COC(=O)c1c(NC(=O)COC(=O)[C@@H](NS(=O)(=O)c2cccc(Cl)c2)C(C)C)sc2c1CCC2	2.82		
Cc1nnsc1C(=O)N/N=C/c1ccc(OC(F)(F)F)cc1	20.2	3.26 µM [falling, partial curve]	4.61 µM [falling, partial curve, poor fit]
COc1ccc2nc(C)cc(SCC(=O)N/N=C/c3c(OC)ccc4ccccc34)c2c1	-7.95	6.51 µM [falling, single point]	
O=C1c2ccccc2C(=O)N1CC(O)Cn1nnc2ccccc21 (configuration not stated)	41.7	9.2 µM [rising, partial curve, poor fit]	14.6 µM [rising, partial curve]
Cc1cccc(-n2nnc3cnn(C)c3c2=O)c1	56.2	16.4 µM [rising, single point]	6.51 µM [rising, single point]
Cc1cccc(COc2ccc(/C=N/NC(=O)c3nnn(-c4nonc4N)c3COc3ccc(F)cc3)cc2)c1	13.2		0.103 µM [rising, full curve, poor fit]
CCOc1ccc(NC(=O)CN(C)C(=O)Cc2ccsc2)cc1OCC	0.273		6.51 µM [rising, single point]
